The other results are listed elsewhere or left out. The data scatter; read single values as rough.
compound: ClCC(=O)N[C@@H]1CCCc2ccccc12; assay: log2 mean competition ratio of IA-DTB cysteine labelling (DMSO/compound) (log2 ratio); higher = stronger cysteine engagement by compound; conditions: 50 µM; treatment time: 4 h; cell line lysate: HEK293T
Method: (§1)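 IA-DTB competitive cysteine chemoproteomics in HEK293T RIPA lysate. Lysates were treated with compound 29 or 30 at 50 or 200 µM for 4 h, then IA-DTB (500 µM, 1 h), trypsin-digested, NeutrAvidin-enriched and analysed by diaPASEF. Competition ratio = intensity DMSO / intensity compound (n=4 treated, n=64 DMSO); binding: mean log2 CR ≥ 1 and p ≤ 0.05 plus QC filters. Target is the cysteine site.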

Protein sequences, listed by entry. Tags and fused reporters are not part of them. Lines headed by an entry give the natural chain unless they say otherwise; changes in a name come on top. Residues count along the entry.
UniProt O43148, whole entry, looked up: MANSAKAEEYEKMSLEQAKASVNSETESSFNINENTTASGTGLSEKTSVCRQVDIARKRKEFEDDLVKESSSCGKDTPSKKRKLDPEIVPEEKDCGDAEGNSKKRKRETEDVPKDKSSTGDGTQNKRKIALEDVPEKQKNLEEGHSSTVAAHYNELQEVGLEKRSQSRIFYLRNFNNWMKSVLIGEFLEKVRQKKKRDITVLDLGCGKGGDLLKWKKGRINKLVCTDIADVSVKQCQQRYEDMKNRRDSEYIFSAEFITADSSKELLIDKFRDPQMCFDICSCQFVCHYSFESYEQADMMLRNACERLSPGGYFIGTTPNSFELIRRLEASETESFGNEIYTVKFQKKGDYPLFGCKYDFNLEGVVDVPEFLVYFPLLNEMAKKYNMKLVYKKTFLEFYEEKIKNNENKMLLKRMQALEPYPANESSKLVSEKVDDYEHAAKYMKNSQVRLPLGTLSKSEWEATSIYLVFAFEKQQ
UniProt Q6P087: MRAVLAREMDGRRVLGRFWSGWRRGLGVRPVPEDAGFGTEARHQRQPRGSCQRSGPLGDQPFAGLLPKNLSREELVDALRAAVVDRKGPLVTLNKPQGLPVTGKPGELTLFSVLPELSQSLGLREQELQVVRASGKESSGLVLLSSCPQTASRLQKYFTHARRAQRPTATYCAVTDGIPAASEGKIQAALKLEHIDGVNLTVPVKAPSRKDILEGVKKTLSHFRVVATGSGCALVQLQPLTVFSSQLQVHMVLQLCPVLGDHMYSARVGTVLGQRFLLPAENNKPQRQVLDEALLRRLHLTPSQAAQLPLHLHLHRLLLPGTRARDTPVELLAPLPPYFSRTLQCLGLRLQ
UniProt P13489, 65-86: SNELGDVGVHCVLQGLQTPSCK
UniProt Q8TDP1, 23-46: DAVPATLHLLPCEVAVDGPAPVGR
UniProt Q5JTH9: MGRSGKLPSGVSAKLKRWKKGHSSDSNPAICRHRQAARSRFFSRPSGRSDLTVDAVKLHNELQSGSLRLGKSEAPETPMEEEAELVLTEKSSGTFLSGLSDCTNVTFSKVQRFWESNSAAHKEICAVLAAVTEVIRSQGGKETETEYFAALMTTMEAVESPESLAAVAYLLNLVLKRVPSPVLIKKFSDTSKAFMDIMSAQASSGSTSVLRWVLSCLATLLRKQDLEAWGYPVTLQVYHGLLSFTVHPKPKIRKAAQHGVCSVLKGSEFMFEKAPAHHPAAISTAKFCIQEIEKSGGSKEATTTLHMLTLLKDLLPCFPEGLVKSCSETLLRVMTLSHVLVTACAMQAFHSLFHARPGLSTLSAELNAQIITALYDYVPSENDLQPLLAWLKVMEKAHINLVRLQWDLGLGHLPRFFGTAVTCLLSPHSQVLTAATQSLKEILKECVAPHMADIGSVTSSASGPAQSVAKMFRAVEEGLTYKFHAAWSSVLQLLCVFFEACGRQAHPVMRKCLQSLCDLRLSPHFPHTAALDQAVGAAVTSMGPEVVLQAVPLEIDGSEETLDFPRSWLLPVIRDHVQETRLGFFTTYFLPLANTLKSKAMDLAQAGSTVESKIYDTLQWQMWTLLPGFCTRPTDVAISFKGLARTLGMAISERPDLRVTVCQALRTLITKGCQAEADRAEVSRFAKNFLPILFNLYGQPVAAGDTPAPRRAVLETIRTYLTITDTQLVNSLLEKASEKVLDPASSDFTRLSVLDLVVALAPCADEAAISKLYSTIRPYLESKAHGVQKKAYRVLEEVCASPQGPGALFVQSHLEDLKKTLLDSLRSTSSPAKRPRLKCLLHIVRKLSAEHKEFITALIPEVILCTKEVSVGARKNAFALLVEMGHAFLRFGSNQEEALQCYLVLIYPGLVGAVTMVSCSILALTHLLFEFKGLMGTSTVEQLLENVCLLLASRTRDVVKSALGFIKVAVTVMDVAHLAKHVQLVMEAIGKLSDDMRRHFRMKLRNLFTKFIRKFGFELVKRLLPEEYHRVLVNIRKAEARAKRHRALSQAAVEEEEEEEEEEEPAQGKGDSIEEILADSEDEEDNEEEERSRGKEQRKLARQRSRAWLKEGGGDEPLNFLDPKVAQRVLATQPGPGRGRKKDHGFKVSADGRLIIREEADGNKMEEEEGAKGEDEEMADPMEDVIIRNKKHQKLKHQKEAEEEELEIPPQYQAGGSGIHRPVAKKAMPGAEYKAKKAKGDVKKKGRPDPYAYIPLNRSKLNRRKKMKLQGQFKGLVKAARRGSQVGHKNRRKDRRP
UniProt P51812: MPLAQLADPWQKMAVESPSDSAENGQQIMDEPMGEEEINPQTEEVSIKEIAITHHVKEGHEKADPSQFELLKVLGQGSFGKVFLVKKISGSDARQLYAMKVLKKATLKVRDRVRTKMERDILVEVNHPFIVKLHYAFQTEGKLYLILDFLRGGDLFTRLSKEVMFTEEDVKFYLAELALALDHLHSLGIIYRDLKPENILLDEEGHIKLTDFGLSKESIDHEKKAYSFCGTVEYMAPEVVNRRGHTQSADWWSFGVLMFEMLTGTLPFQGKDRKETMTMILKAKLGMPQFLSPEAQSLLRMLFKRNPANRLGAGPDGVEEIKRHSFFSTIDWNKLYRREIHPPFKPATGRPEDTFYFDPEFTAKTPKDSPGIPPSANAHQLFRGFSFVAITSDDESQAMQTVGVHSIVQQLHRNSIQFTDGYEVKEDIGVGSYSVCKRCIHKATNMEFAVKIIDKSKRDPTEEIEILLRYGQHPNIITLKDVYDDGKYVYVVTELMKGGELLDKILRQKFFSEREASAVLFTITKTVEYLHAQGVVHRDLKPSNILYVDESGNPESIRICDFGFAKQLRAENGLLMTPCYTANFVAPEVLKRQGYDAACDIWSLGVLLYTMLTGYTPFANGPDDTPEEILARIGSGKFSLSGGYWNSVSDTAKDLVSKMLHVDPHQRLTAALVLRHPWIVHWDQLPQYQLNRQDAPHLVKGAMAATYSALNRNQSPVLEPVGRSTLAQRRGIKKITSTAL
UniProt Q05823: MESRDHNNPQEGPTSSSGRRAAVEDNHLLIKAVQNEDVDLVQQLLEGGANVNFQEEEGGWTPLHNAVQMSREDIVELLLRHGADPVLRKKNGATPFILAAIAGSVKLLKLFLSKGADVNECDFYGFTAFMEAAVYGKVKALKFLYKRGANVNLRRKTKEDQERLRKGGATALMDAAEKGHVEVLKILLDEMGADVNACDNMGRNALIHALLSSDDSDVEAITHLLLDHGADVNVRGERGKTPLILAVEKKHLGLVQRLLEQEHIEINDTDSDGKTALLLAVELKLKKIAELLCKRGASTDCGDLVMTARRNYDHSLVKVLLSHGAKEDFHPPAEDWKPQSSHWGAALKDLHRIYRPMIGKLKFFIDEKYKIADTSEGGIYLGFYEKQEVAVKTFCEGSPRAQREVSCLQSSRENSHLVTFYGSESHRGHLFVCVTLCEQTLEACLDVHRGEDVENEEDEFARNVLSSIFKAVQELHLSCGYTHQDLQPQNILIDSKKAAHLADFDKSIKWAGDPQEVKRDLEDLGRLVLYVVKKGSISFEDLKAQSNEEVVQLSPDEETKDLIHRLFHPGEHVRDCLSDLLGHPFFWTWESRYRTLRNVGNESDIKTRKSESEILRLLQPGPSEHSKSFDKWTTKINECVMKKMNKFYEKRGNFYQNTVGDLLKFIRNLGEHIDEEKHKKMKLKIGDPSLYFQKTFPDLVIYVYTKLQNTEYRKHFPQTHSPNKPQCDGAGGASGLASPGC
UniProt Q9Y224: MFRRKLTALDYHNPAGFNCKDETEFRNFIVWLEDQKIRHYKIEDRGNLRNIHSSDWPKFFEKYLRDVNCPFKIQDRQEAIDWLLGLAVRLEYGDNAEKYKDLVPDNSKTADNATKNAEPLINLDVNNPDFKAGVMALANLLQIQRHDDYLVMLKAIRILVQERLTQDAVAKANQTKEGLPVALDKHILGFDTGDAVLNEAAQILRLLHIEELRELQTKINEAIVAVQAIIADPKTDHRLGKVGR
UniProt A6NKF1: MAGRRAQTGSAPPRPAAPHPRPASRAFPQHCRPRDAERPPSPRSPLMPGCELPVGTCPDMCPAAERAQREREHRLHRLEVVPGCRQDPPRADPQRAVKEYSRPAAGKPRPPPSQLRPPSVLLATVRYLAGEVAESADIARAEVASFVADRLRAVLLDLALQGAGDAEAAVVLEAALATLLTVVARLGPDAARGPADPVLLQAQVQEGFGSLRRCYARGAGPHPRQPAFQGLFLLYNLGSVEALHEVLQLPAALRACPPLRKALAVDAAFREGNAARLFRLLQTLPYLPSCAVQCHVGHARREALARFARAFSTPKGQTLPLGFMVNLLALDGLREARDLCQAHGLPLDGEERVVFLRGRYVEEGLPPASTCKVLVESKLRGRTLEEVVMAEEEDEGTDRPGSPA
UniProt Q9BST9: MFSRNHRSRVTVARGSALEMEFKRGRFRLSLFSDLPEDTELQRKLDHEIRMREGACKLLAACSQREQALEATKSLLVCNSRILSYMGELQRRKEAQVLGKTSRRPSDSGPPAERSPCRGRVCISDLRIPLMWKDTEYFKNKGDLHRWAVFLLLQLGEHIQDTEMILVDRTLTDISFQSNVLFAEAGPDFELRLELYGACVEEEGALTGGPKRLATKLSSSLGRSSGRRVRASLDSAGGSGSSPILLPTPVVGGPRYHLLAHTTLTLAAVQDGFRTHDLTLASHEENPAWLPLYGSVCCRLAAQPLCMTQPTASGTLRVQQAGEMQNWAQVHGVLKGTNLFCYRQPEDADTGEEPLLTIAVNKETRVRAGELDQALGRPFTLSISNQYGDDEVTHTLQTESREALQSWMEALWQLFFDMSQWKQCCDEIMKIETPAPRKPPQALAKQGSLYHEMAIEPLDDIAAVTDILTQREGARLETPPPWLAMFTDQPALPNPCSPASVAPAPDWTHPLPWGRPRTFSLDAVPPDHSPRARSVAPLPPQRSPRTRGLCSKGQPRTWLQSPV
UniProt P28702: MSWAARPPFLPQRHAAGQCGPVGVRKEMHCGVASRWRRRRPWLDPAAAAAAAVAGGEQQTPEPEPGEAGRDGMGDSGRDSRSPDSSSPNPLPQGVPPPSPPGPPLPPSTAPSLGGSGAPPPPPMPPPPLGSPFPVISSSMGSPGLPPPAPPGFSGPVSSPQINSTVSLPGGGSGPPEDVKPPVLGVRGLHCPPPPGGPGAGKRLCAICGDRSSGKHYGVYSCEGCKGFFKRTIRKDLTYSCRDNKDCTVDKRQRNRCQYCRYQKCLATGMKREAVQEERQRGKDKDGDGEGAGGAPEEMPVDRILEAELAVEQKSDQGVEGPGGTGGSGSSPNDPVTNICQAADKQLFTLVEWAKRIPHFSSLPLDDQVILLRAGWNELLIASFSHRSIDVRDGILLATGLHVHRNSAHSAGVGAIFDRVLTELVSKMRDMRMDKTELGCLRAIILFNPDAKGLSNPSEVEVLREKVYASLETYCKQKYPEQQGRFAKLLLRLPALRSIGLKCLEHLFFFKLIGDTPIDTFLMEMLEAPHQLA
UniProt Q96A37: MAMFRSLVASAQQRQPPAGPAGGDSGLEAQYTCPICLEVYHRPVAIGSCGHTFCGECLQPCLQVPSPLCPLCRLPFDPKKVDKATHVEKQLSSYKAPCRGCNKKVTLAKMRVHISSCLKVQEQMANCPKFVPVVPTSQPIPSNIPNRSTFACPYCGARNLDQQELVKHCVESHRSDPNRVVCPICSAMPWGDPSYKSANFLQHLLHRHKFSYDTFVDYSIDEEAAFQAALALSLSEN
UniProt P23921: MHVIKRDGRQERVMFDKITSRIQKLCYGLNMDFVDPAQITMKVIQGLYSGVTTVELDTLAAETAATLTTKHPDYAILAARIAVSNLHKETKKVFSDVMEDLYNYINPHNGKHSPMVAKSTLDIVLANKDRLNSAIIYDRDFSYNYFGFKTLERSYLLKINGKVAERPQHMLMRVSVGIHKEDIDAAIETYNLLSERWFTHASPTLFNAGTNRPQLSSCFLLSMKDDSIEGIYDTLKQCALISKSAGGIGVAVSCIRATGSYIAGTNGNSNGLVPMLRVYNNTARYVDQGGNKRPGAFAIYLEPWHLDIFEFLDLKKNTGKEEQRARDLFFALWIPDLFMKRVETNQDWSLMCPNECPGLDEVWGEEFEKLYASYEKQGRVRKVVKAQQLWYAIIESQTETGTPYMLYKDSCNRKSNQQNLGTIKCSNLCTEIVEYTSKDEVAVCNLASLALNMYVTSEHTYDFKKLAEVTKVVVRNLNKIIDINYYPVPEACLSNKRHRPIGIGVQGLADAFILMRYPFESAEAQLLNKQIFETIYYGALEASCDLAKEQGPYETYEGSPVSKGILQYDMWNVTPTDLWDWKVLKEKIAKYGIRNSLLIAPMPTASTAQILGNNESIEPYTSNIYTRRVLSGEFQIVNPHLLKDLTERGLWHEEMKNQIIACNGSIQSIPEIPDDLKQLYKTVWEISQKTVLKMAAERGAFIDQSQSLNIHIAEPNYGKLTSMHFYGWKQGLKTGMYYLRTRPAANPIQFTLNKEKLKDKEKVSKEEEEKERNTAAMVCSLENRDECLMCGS

Target | log2 mean competition ratio
RSL1D1 C197 (UniProt O76021) | -0.158
RPS17 C35 (UniProt P08708) | 0.137
RNMT C225 (UniProt O43148) | -0.309
RPUSD3 C147 (UniProt Q6P087) | 0.479
RNH1 C38 (UniProt P13489) | -0.146
RNASEH2C C34 (UniProt Q8TDP1) | 0.126
RNF213 C4570 | -0.058
RRP1B C386 (UniProt Q14684) | 0.115
RPS11 C131 (UniProt P62280) | 0.127
RND2 C18 | -0.0682
RNPC3 C110 (UniProt Q96LT9) | -0.246
RWDD3 C80 (UniProt Q9Y3V2) | -0.0222
RNGTT C565 (UniProt O60942) | -0.136
RPL10 C105 | 0.111
RNF213 C3008 | -0.0674
RRP12 C102 (UniProt Q5JTH9) | 0.237
ROR1 C575 | -0.0789
RPS6KA3 C229 (UniProt P51812) | 0.443
RNMT C206 (UniProt O43148) | -0.118

Target | log2 mean competition ratio
RNASEL C198 (UniProt Q05823) | -0.289
RPP40 C17 (UniProt O75818) | -0.118
RTRAF C19 (UniProt Q9Y224) | 0.37
ROR1 C482 | -0.121
RPL14 C42 (UniProt P50914) | 0.149
RPTOR C362 (UniProt Q8N122) | 0.283
SAC3D1 C84 (UniProt A6NKF1) | 0.199
RTKN C306 (UniProt Q9BST9) | -0.169
RXRB C475 (UniProt P28702) | 0.255
RPL7A C182 (UniProt P62424) | 0.0295
RNF214 C315 (UniProt Q8ND24) | 0.11
RNF166 C127 (UniProt Q96A37) | -0.264
RUFY1 C107 (UniProt Q96T51) | 0.43
RNH1 C220 (UniProt P13489) | 0.255
RRM1 C254 (UniProt P23921) | -0.114
RNF123 C977 (UniProt Q5XPI4) | -0.132
RNH1_(C75,C75,C85,C85) (UniProt P13489) | 0.141
RTN4 C912 | -0.33

same assay, conditions: 200 µM; treatment time: 4 h; cell line lysate: HEK293T

Target | log2 mean competition ratio
RSL1D1 C197 (UniProt O76021) | -0.0307
RPS17 C35 (UniProt P08708) | -0.291
RNMT C225 (UniProt O43148) | -0.109
RPUSD3 C147 (UniProt Q6P087) | 0.672
RNH1 C38 (UniProt P13489) | 0.0646
RNASEH2C C34 (UniProt Q8TDP1) | 0.916
RNF213 C4570 | 0.312
RRP1B C386 (UniProt Q14684) | -0.61
RPS11 C131 (UniProt P62280) | -0.137
RND2 C18 | 0.606
RNPC3 C110 (UniProt Q96LT9) | -0.058
RWDD3 C80 (UniProt Q9Y3V2) | -0.196
RNGTT C565 (UniProt O60942) | -0.163
RPL10 C105 | 0.295
RNF213 C3008 | 0.111
RRP12 C102 (UniProt Q5JTH9) | 0.145
ROR1 C575 | -0.424
RPS6KA3 C229 (UniProt P51812) | 0.261
RNMT C206 (UniProt O43148) | 0.187

Target | log2 mean competition ratio
RNASEL C198 (UniProt Q05823) | 0.227
RPP40 C17 (UniProt O75818) | -0.109
RTRAF C19 (UniProt Q9Y224) | 0.464
ROR1 C482 | -0.112
RPL14 C42 (UniProt P50914) | -0.222
RPTOR C362 (UniProt Q8N122) | 0.0182
SAC3D1 C84 (UniProt A6NKF1) | -0.216
RTKN C306 (UniProt Q9BST9) | 0.00137
RXRB C475 (UniProt P28702) | 0.229
RPL7A C182 (UniProt P62424) | -0.0236
RNF214 C315 (UniProt Q8ND24) | -0.0822
RNF166 C127 (UniProt Q96A37) | -0.0327
RUFY1 C107 (UniProt Q96T51) | 0.338
RNH1 C220 (UniProt P13489) | -0.225
RRM1 C254 (UniProt P23921) | -0.488
RNF123 C977 (UniProt Q5XPI4) | -0.0524
RNH1_(C75,C75,C85,C85) (UniProt P13489) | -0.0203
RTN4 C912 | -0.348

compound: ClCC(=O)N[C@H]1CCCc2ccccc12; assay: as above; conditions: 50 µM; treatment time: 4 h; cell line lysate: HEK293T
Method: as §1

Target | log2 mean competition ratio
RSL1D1 C197 (UniProt O76021) | -0.0684
RPS17 C35 (UniProt P08708) | -0.0951
RNMT C225 (UniProt O43148) | -0.491
RPUSD3 C147 (UniProt Q6P087) | 0.884
RNH1 C38 (UniProt P13489) | -0.629
RNASEH2C C34 (UniProt Q8TDP1) | -0.249
RNF213 C4570 | 0.177
RRP1B C386 (UniProt Q14684) | 0.738
RPS11 C131 (UniProt P62280) | 0.243
RND2 C18 | -0.144
RNPC3 C110 (UniProt Q96LT9) | -0.25
RWDD3 C80 (UniProt Q9Y3V2) | -0.255
RNGTT C565 (UniProt O60942) | -0.0298
RPL10 C105 | 0.142
RNF213 C3008 | -0.244
RRP12 C102 (UniProt Q5JTH9) | 0.46
ROR1 C575 | -0.33
RPS6KA3 C229 (UniProt P51812) | 0.937
RNMT C206 (UniProt O43148) | -0.158

Target | log2 mean competition ratio
RNASEL C198 (UniProt Q05823) | 0.784
RPP40 C17 (UniProt O75818) | -0.112
RTRAF C19 (UniProt Q9Y224) | 0.194
ROR1 C482 | -0.258
RPL14 C42 (UniProt P50914) | 0.214
RPTOR C362 (UniProt Q8N122) | -0.122
SAC3D1 C84 (UniProt A6NKF1) | 0.0799
RTKN C306 (UniProt Q9BST9) | 0.1
RXRB C475 (UniProt P28702) | 0.0684
RPL7A C182 (UniProt P62424) | -0.28
RNF214 C315 (UniProt Q8ND24) | -0.13
RNF166 C127 (UniProt Q96A37) | -0.367
RUFY1 C107 (UniProt Q96T51) | 0.29
RNH1 C220 (UniProt P13489) | 0.477
RRM1 C254 (UniProt P23921) | 0.0532
RNF123 C977 (UniProt Q5XPI4) | -0.348
RNH1_(C75,C75,C85,C85) (UniProt P13489) | 0.279
RTN4 C912 | 0.24

Reference: the supplement of paper PMC11732987, “Enantioselective OTUD7B fragment discovery through chemoproteomics screening and high-throughput optimisation” (Communications Chemistry, 2025)
